Laboratory results from patent US4629723A (Ortho Pharmaceutical Corporation, priority 1984, dated 1986).

Assay: general procedure: Boc solid-phase peptide synthesis; Boc-Phe Merrifield (chloromethylated) resin; p-methylbenzhydrylamine (MBHA) resin; DCC; DCC/HOBt
Details: whole synthesis, TLC; HPLC

Arginyl-Lysyl-Aspartyl-Valyl-Tryptophan
final purity (method not given): 93% pure
